In the supplement of paper PMC5949888:
± gives the standard deviation of the averaged measurements. Most values lie at the floor of the assay. Slopes are relative: functional sequences can read slightly below zero.

What follows are substances tested on Saccharomyces cerevisiae PS128 hsf1 delta, HSF1(1-493) fusion (assay: growth estimate (transactivation domain function in HSF1 fusion, heat-shock survival) (a.u. (slope of normalised read count over time)); higher = stronger growth at 37°C, i.e. more transactivation activity). Details: library: random library.

Substance | growth estimate
SGPGCPRYFSVQSTDD | < -0.25
SGPGWSARGTCLSSSYIVQC | < -0.25
SGPRGFGENRYHMLVTGDDR | < -0.25
SGQAIRCQFK | < -0.25
SGQVSHRSVGYSLR | < -0.25
SGRAGGGWWRASPAAKPLRL | < -0.25
SGRCVRGSIHRPHFRDVVGG | < -0.25
SGREPSTRERDMVITWPSRR | < -0.25
SGRFRQYD | < -0.25
SGRHV | < -0.25
SGRKLHAPQAPKSEAGSVAP | < -0.25
SGRMKLVLEWLGGACCSTYR | < -0.25
SGRMRSTKINPGLHRLKADV | < -0.25
SGRPGG | < -0.25
SGRSNVSRWNLVASQRWSEP | < -0.25
SGRTIGH | < -0.25
SGSEGYGSCAF | < -0.25
SGSFLVSLHGGLHKRYHVHD | -0.241
SGSGIRFRVHGTII | < -0.25
SGSIKRSGVTFSRLKSCHPT | < -0.25
SGSLV | -0.246
SGSSAVERCYI | < -0.25
SGSTYQ | < -0.25
SGTCAKRLTG | < -0.25
SGTEGAPLVVGGSVSGSQRD | < -0.25

Two successive entries out of the list so far, for reference:
Substance | growth estimate
SGQAIRCQFK | < -0.25
SGQVSHRSVGYSLR | < -0.25

(cont.)

Substance | growth estimate
SGTGPDVVSNQLKTTGTRAR | < -0.25
SGTKPNGFGARYLV | < -0.25
SGTLAI | < -0.25
SGTLWTR | < -0.25
SGTRGPCKHVMIGRGDVACP | < -0.25
SGVAALIRVGDEHARSAAAG | < -0.25
SGVENKIGQLWWPAALQTGW | < -0.253
SGVL | < -0.25
SGVSPGQSRA | < -0.25
SGWGSGYRL | < -0.25
SGWRSTAGVEN | < -0.25
SGYIEPVAKHRESVCKCRLA | < -0.25
SGYWSFGEG | -0.231
SHARTYQVHLRALH | < -0.25
SHCHDRSGGIIGVAPSTSRA | < -0.25
SHCRQI | < -0.25
SHCVSSLIRLPMSRGNSTSG | < -0.25
SHDSVFASFCQGQIRCSPTG | < -0.25
SHEIRRVGANA | < -0.25
SHFLASMTHNFANQVCVHLR | < -0.25
SHGKERRRVCGKRGSWTGWW | -0.246
SHGVRVLDCQGKS | -0.245
SHH | -0.248 ± 0.003
SHKGRLLRNASARSVPISD | -0.231
SHKSLF | < -0.25

Reformatted as tab-separated lines: part of the list above
Substance	growth estimate
SGTLAI	< -0.25
SGTLWTR	< -0.25

Next records follow.

Substance | growth estimate
SHLDVQVGRTLVVPLKLPDQ | < -0.25
SHLGP | < -0.25
SHMGLHTIEVGTDEYIIRRP | < -0.25
SHMIPVIGVRYQIFIISGID | -0.243
SHNGRWTQTEFGRGIFVRLD | < -0.25
SHNTNGAQLCRAHVTEDMIE | < -0.25
SHPQRFTTGLRGKLEWRYLR | < -0.25
SHRDRLCSILSSIVARASGM | < -0.25
SHRGNSVDVGTCRGVRLRRY | < -0.25
SHRYSGRVQRGRCLRPSHTV | < -0.25
SHSDRHPKSGSAINESCSCA | < -0.25
SHSPVCGPRASGARVQYATS | < -0.25
SHSRSVREYCGSFICPIQLV | < -0.25
SHSSRSW | < -0.25
SHTLASICCCRAGPPIGRLQ | < -0.25
SHTPA | < -0.25
SHVGLWKYPATTVF | < -0.25
SHWNGWKSRKGRVVTRTGPA | < -0.25
SHWSYSGWC | < -0.25
SICVA | < -0.25
SIENGSGHNSYDRLIVPRRT | < -0.25
SIENRG | < -0.25
SIEPARVWYQ | < -0.25
SIGGSMNPSVRRTKT | < -0.25
SIGKRPTSGRLYRGGHPQAH | < -0.25

Substance | growth estimate
SIGSRHLWGVSGSAVSGCRP | -0.245
SIHAEYNPDSNCQTMCGSPR | < -0.25
SIHPAEIELTSTAS | < -0.25
SIHSPSPWGQDDSAILCCAL | < -0.25
SIIPEMYPACRRFHSRPGSC | < -0.25
SIKSLVGGIFGRVARIDDRS | < -0.25
SILGVRARELGRAEGTGFLR | < -0.25
SILLSFALIVLGWVTVLNPS | < -0.25
SILQHWKTVQAVPLDPHRQP | < -0.25
SILRFVGKRPLRVLLTRLGH | < -0.25
SIPASSFPADYVRQA | < -0.25
SIPLQTCHIGYARCF | < -0.25
SIRCQPPREIRFFDISRFSI | < -0.25
SIRELLQAILGTPTSALRWW | < -0.25
SIRLIL | < -0.25
SIRLLCGAKSGPSAPFFL | < -0.25
SIRYGVILTNRN | < -0.25
SISASFAYLTGSAEL | < -0.25
SISNLHRQGYNVAPGFTITQ | < -0.25
SISWGPKSRSG | < -0.25
SITFRRGLRSNEPPTTSSVD | < -0.25
SIVCKILRTIIRVLS | -0.17
SIVIGSLAWGLYDNEG | < -0.25
SIVQSPFISSYVSRGI | < -0.25
SIVSKGAWSVMS | < -0.25

Substance | growth estimate
SIVVCEVLSSRGSDDRRPIV | < -0.25
SIVVENLNEVTTQGGYSRSA | < -0.25
SIWGVRHGPPGLRGRGKA | < -0.25
SKA | < -0.25
SKCHIAYMDRADRFLNIDLI | < -0.25
SKCPLFQSYVLSGVRTGGRV | < -0.25
SKCPRATVRRQLERMLSVLG | < -0.25
SKEAQASSPAGRCHNNNEPR | < -0.25
SKEGSANAHELVSRSLPTTG | < -0.25
SKEQSKHVCQLGVSSELE | < -0.25
SKFFQPFFCAIFCEW | < -0.25
SKGHPIRSGYGRFIA | < -0.25
SKGR | < -0.25
SKIAE | < -0.25
SKIFNCSF | < -0.25
SKLDQSSCTAGGPAPFSVPR | < -0.25
SKLPRPWPTREQWIKKVGTA | < -0.25
SKLTACGHGV | -0.168
SKLYAHVDSNPINSPMAPSA | < -0.25
SKMVLVGLAPRSRSTETCLR | < -0.25
SKPLLRMGDERATFDEPVAD | < -0.25
SKR | < -0.25
SKRFEPISCLLRVWTSKRDG | < -0.25
SKRPDPCTSRGSA | < -0.25
SKSRGLRAEYNRFGVGANAR | < -0.25

Substance | growth estimate
SKSVRTLEPRPAFHLPSAE | < -0.25
SKVGVIQYYSVPGTICNQAT | < -0.25
SKVML | < -0.25
SKVRLDSVGGAPISCPSGAH | < -0.25
SKVRLRGAMNLL | -0.231
SKYCALLTRKRHRKQGGTRP | < -0.25
SLAAPVES | < -0.25
SLCPVKWCA | < -0.25
SLDRTLMGGGVYMDSSIRGA | < -0.25
SLELGCGDLTALSIIPAGCR | < -0.25
SLET | < -0.25
SLGALRHCGSKGHWLHATQS | < -0.25
SLGCIAQLLVDSYVVSTEYV | < -0.25
SLGDRSGVFEDVHRLRSRNG | -0.243
SLGGVGAWSPWLRGPQTQGT | < -0.25
SLGKEVPPMIERDVRFVGNS | < -0.25
SLGPVPVDGI | < -0.25
SLGSEAMFTWGQTSASRQT | < -0.25
SLGSKGRIRRMDFQRVRRSR | < -0.25
SLGYR | < -0.25
SLHGRCATFTPLRAVQVFVP | < -0.25
SLHNELVADAAPPGLTSGQP | < -0.25
SLI | < -0.25
SLIRIPAVATTRGSPRLSHV | < -0.25
SLIRSGLYRTSGAAINGIRS | < -0.25

Rewritten with each value named: entries from further up
SILQHWKTVQAVPLDPHRQP
  growth estimate: < -0.25
SLHNELVADAAPPGLTSGQP
  growth estimate: < -0.25

Later entries:

Substance | growth estimate
SLIS | -0.203
SLL | -0.248 ± 0.003
SLLFFTDLGGM | -0.114
SLLNVRELPPAPRR | < -0.25
SLLVDVSDLCWGGVGRGSGV | < -0.25
SLLVVK | < -0.25
SLMDYLSDHVHWSASRPVVP | < -0.25
SLNSRTTGARRSMVVCAASG | < -0.25
SLP | < -0.25
SLPFEASWSVRNEVVDGRVT | < -0.25
SLPMTGHFHERAPWVHALY | < -0.25
SLQGGRV | < -0.25
SLQHLSERNVIKW | < -0.25
SLQLLTEVPGGGPHPPASAA | < -0.25
SLRADFRVLSREFTSRILRA | < -0.25
SLRD | < -0.25
SLRGDKCDLQDIGRSKLASN | < -0.25
SLRHLDTLVVARAAVGIPKN | < -0.25
SLRHVNPLGGVLGH | -0.248
SLRILAPLPEIS | < -0.25
SLRVEICGSGRPGSSRCHGR | < -0.25
SLRVRLGTVSSVAYTDNPTL | < -0.25
SLSCKSASLCGSPANAGASG | < -0.25
SLSEVDNSGL | < -0.25
SLSGRISSP | < -0.25

Substance | growth estimate
SLSGTKYPCGKGRTA | < -0.25
SLSLQIEGNPGKRTRTPGRC | < -0.25
SLSSDHVSAVFSRPADSIFA | < -0.25
SLSSFRRHIMSECGREPVTL | < -0.25
SLSTHTYIGKFQRFLSPDEP | < -0.25
SLSVPLRS | < -0.25
SLSVVVSPLDSLPDDFPGLG | -0.0568
SLTSMLR | < -0.25
SLVGRGVD | < -0.25
SLVLLLLGLLSGYGC | < -0.25
SLVNRLTVFNFC | < -0.25
SLVPSHS | < -0.25
SLVRPSKATEFKLSCITFSV | < -0.25
SLVRRRSCGGGLAIKERFDL | -0.246
SLWRIPYR | < -0.25
SLYSGERKYGRFTWSAVRWG | < -0.25
SLYTRAQYSDEGASVQPRWG | < -0.25
SMAGVGTDDRHWG | < -0.25
SMCWARG | < -0.25
SMGGPAPSSSP | < -0.25
